The assay has as its target BAF60A with an N-terminal 3xFLAG tag (human) (UniProt Q96GM5). The assay is described as follows: co-IP.

Amino acid sequences for entries named in this document (tags omitted).
UniProt Q96GM5: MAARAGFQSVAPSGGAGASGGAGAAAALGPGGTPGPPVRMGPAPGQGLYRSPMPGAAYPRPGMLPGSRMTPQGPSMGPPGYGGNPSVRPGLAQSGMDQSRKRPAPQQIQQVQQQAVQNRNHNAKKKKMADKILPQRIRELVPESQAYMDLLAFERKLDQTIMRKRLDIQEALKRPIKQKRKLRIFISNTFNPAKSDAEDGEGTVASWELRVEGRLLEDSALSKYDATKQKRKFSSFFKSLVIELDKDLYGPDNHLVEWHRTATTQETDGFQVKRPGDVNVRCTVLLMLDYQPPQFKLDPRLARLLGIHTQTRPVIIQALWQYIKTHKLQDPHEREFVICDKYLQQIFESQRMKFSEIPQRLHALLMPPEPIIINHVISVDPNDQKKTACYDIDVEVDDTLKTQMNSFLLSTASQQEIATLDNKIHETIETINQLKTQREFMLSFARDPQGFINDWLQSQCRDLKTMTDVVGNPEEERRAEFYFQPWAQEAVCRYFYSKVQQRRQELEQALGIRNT
UniProt Q12824: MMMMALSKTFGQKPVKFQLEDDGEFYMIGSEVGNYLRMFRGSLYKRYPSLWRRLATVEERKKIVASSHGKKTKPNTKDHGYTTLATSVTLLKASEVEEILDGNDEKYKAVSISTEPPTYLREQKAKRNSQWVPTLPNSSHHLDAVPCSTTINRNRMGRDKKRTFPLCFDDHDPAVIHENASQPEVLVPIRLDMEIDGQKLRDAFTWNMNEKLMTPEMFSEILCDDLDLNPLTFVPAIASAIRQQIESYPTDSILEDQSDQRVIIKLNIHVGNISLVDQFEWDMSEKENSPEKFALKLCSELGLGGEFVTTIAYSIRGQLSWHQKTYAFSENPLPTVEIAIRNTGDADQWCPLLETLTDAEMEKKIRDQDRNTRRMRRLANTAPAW
UniProt O96019: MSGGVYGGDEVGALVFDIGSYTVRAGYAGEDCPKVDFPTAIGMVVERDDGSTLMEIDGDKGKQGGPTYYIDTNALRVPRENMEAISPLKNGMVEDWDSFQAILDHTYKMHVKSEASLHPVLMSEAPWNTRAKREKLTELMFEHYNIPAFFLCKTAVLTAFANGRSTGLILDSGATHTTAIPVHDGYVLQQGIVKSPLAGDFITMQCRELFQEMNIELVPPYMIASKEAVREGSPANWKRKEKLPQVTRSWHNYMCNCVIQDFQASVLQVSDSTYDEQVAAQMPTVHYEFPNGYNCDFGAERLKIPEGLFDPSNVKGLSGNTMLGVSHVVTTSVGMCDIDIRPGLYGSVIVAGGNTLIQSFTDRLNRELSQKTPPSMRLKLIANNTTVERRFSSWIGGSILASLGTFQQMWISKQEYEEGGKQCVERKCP
UniProt Q969G3: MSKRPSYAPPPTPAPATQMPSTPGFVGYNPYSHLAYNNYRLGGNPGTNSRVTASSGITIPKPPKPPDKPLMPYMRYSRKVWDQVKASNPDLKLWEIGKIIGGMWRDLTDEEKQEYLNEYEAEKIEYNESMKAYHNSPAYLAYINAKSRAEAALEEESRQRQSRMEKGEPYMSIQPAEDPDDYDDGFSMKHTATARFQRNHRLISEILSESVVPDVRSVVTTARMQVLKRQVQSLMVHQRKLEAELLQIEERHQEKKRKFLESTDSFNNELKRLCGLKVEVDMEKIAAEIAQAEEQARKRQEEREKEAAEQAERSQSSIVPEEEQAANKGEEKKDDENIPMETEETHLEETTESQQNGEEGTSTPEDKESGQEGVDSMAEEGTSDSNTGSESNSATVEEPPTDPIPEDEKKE
UniProt Q92922: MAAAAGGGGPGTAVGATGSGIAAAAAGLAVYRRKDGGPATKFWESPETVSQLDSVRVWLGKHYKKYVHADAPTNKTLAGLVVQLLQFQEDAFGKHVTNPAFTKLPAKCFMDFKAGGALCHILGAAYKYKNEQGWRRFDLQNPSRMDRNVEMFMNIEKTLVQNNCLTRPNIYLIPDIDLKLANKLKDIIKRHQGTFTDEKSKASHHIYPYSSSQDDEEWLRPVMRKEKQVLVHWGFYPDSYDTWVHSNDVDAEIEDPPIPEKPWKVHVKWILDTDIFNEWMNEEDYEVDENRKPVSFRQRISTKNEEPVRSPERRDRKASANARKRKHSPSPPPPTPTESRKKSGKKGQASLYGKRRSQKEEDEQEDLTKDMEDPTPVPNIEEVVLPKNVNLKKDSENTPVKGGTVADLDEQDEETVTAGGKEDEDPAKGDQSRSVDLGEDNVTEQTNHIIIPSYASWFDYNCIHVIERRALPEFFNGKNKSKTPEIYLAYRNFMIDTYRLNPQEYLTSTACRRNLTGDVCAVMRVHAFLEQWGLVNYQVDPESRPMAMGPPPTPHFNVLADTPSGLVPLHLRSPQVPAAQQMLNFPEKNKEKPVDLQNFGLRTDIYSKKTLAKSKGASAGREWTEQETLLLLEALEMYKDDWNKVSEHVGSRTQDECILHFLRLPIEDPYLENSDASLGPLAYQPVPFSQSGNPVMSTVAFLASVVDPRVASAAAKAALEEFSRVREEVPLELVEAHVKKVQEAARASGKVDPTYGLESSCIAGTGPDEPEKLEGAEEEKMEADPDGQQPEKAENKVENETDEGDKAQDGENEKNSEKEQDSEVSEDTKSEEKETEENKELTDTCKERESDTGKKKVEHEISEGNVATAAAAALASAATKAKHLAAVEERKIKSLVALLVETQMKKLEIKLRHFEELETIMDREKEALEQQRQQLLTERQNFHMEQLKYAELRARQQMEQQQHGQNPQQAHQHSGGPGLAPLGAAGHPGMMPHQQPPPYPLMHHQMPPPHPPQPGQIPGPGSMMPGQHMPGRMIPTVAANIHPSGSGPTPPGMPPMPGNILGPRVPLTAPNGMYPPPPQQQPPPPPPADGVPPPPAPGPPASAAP
UniProt Q92785: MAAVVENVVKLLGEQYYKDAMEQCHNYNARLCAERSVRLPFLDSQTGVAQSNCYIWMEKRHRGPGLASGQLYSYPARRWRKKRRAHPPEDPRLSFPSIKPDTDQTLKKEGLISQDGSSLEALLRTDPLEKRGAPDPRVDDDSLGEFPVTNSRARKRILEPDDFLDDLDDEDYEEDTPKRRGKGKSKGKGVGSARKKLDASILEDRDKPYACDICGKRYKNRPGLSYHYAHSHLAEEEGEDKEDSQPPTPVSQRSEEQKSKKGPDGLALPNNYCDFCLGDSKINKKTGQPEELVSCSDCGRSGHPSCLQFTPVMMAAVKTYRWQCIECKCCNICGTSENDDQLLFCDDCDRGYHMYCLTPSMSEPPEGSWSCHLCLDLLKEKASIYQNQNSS
UniProt Q15532: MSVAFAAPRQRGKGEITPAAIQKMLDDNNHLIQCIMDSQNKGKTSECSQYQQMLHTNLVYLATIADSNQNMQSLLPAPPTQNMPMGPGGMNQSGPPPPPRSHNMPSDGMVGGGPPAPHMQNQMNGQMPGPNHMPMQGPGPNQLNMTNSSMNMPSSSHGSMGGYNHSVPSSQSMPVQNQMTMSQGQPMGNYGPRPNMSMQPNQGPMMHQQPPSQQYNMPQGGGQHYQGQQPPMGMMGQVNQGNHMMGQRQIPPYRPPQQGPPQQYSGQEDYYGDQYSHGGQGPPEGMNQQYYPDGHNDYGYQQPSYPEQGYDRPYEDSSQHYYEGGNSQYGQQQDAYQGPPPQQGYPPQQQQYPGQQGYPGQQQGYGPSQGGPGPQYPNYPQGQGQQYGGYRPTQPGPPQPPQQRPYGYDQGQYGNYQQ

From paper doi:10.1101/2021.10.26.465931 come the findings set out here.

These are yes or no findings as the source states them, for the method shown. Binding seen in cells or lysates may run through a third protein. Some binding calls cover weakened binding; strength is not graded here.

Regarding BAF47 (from UniProt Q12824 1-385), the binding entry is “binds”.

In the case of BAF53A (from UniProt O96019 1-429), the binding result is “binds”.

As for “BAF57 with an N-terminal single-chain tetracycline repressor DNA binding domain (scTetR) (from UniProt Q969G3 1-411)”, the binding result is “binds”.

Turning to BAF155 (from UniProt Q92922 1-1105), the binding result is reported as “binds”.

Regarding DPF2 (from UniProt Q92785 1-391), the binding entry is on record as “binds”.

For the substance SS18 (from UniProt Q15532 1-418), the binding entry is recorded as “binds”.

In the case of “endogenous BAF57 (from UniProt Q969G3 1-411)”, the binding entry is “binds”.
